# Data: the supplement of paper PMC10849652
# Amino acid sequences for entries named in this document (tags omitted). A change or cut given only in a name is not applied to a line headed by its entry.
# UniProt Q7Z6J9: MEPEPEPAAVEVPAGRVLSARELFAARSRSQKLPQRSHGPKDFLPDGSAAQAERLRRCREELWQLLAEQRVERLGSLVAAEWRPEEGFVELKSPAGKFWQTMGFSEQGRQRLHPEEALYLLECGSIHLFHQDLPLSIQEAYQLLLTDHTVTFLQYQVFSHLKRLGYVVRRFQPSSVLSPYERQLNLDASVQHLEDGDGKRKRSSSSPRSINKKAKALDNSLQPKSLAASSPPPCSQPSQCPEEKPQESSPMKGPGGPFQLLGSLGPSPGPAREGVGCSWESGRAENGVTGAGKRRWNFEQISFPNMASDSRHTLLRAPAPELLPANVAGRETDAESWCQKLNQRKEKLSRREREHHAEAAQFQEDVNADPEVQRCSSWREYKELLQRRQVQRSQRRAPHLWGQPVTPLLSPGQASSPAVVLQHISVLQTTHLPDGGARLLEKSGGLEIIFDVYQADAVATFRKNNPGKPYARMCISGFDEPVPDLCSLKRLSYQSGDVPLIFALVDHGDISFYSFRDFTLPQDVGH
# UniProt Q7Z4G4: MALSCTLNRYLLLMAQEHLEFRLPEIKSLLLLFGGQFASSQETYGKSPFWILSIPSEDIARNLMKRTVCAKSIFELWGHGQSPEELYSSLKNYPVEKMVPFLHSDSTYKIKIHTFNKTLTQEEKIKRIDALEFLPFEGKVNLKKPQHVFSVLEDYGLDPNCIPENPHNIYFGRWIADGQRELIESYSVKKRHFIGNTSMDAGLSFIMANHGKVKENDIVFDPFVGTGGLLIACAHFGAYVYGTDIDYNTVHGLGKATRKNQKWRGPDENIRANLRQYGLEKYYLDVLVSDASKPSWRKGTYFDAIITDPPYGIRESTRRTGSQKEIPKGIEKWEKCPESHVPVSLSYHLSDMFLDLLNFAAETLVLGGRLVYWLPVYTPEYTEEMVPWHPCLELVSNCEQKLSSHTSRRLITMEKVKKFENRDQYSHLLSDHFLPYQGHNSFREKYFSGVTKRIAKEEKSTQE
# UniProt Q15629: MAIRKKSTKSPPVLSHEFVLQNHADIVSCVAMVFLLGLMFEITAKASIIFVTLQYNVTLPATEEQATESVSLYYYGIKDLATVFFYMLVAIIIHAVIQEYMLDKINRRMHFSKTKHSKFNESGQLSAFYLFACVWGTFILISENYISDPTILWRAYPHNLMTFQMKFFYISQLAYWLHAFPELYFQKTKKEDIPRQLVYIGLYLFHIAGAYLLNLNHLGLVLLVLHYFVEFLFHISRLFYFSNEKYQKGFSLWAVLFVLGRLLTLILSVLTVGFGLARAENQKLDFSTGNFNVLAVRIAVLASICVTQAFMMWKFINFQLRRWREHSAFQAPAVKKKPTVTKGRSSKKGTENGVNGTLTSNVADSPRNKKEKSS
# UniProt Q15642: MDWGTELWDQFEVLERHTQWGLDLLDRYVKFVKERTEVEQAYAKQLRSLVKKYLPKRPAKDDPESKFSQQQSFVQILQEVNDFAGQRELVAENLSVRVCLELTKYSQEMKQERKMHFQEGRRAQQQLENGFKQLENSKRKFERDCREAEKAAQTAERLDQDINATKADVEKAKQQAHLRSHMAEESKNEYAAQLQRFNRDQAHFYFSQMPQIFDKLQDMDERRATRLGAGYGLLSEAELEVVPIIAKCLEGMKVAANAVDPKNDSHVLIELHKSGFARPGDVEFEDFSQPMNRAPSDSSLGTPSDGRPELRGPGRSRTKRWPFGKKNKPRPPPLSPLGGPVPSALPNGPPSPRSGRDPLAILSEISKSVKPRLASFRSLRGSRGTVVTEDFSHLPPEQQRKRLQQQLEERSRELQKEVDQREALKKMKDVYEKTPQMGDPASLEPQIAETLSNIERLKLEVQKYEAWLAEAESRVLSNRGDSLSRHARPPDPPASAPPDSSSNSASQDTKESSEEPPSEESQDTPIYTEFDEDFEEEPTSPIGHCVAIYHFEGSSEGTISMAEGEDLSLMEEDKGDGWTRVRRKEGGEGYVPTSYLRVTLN
# UniProt Q96FX7: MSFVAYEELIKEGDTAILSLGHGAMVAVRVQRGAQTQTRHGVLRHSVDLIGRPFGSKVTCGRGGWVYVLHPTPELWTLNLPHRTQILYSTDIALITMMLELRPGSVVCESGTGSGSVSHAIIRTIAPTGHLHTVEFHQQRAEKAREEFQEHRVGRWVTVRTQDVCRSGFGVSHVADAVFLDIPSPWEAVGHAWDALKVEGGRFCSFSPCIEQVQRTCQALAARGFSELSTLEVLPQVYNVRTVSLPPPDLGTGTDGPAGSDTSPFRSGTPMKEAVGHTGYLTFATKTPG
# UniProt Q9UL33, whole entry, looked up: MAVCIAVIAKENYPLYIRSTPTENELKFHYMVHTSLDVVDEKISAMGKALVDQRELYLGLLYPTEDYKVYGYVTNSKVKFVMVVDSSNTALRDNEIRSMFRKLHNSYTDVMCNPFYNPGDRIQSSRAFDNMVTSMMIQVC
# UniProt Q9H892: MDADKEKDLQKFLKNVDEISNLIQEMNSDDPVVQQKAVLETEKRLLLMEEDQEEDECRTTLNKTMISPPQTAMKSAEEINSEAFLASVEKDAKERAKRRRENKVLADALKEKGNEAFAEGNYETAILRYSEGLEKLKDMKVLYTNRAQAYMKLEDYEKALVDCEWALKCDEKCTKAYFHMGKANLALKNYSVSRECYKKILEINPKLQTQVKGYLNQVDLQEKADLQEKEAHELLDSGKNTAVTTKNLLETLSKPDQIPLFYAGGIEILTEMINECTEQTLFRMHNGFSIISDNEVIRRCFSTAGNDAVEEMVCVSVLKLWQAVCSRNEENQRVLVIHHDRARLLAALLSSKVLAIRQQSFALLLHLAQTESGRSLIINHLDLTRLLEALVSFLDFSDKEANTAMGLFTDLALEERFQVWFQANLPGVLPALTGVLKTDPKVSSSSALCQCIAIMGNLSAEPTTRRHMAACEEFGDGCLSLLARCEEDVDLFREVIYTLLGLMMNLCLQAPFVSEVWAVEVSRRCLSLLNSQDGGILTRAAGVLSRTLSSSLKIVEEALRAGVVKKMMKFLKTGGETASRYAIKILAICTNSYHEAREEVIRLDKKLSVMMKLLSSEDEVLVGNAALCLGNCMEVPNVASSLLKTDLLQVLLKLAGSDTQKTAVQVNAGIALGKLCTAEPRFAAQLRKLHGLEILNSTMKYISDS
# UniProt Q13049: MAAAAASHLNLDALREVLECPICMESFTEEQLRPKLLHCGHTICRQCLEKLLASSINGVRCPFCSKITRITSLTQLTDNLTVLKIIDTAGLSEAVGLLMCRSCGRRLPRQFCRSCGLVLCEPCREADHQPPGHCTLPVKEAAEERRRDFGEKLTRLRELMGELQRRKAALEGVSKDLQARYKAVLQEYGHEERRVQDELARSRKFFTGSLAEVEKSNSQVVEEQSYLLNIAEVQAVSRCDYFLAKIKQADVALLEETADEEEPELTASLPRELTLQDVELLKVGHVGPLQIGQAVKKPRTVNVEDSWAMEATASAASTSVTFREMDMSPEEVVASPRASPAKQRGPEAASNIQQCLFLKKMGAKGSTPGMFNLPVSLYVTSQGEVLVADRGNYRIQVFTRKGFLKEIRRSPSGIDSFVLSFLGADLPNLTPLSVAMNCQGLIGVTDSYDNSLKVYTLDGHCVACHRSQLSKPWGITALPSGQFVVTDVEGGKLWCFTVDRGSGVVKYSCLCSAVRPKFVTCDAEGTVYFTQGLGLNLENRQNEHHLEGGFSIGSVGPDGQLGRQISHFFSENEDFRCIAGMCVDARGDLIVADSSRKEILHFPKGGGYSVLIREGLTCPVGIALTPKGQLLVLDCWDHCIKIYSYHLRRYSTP
# UniProt Q9UPN9: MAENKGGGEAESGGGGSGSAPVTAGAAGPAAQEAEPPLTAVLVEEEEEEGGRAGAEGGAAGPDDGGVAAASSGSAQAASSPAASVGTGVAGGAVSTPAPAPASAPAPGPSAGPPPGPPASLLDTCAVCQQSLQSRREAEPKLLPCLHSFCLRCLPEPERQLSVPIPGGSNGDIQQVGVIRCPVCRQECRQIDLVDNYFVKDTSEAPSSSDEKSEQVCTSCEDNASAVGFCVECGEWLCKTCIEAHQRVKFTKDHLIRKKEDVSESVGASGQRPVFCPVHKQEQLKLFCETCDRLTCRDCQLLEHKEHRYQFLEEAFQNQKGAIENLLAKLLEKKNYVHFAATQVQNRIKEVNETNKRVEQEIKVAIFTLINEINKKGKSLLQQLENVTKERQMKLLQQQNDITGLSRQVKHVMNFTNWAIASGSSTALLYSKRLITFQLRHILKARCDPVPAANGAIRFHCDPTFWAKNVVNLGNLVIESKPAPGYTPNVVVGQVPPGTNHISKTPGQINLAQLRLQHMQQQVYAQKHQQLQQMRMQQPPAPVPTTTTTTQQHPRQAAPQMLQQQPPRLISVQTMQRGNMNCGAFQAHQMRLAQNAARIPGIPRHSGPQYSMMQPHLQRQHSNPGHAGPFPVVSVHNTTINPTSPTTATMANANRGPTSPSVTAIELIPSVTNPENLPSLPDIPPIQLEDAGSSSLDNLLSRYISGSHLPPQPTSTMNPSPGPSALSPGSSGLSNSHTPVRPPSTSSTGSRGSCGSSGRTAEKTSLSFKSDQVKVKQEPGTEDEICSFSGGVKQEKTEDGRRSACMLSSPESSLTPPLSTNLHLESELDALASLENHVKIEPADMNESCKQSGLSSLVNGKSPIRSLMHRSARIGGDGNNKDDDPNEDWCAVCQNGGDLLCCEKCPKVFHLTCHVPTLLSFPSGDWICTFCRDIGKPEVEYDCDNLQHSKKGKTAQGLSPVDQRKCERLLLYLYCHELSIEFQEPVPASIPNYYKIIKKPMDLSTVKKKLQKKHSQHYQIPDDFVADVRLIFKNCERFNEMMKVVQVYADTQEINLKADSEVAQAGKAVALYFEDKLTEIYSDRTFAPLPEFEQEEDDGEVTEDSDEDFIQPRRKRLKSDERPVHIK
# UniProt O95857: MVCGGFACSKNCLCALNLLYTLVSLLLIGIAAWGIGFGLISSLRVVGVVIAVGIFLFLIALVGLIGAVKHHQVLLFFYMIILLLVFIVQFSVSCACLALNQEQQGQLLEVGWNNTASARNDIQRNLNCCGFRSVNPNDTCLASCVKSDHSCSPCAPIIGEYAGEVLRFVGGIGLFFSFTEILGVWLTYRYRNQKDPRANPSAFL
# UniProt Q8TEL6: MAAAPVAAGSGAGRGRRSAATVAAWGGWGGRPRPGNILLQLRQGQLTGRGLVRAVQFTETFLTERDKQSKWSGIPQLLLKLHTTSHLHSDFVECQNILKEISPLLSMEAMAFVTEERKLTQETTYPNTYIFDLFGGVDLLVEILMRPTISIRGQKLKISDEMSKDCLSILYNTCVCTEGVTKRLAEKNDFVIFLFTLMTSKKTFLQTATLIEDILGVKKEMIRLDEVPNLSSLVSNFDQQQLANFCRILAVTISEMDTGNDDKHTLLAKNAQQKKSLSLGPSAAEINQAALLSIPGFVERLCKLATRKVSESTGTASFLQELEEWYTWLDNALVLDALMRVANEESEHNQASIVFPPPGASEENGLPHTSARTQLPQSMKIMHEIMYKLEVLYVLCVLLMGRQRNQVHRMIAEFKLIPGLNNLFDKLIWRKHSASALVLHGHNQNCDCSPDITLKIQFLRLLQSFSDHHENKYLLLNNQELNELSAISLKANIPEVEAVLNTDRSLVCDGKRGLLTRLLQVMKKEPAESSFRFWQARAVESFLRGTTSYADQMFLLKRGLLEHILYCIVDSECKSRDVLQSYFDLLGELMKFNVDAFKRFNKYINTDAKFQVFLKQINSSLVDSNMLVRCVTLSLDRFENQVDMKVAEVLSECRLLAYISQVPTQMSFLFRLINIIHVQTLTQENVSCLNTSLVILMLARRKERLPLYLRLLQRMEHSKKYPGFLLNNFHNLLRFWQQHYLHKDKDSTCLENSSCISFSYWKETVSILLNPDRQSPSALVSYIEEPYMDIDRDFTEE
# UniProt Q15645: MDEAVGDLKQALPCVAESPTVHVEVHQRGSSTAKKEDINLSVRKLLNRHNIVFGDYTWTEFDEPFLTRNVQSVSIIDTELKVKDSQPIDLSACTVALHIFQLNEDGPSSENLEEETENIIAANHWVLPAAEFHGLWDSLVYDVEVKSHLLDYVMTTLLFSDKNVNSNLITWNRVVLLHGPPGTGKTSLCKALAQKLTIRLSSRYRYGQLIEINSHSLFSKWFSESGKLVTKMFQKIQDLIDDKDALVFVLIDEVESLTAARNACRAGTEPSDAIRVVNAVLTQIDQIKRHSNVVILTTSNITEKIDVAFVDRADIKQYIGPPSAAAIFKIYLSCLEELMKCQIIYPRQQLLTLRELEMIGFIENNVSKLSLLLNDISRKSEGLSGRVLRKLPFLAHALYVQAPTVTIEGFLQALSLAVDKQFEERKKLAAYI
# UniProt Q969E8: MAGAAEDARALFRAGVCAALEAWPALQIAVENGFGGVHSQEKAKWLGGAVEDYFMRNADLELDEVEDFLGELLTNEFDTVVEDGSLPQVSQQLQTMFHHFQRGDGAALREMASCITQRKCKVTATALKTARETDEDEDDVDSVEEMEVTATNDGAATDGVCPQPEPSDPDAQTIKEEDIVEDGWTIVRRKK
# This is one part of the list.
# Compound: CN1CCN(c2nc(C3=C(c4c[nH]c5ccccc45)C(=O)NC3=O)c3ccccc3n2)CC1 [sotrastaurin]
# Test: log2 fold change, soluble protein after heating vs DMSO (PISA); higher = thermal stabilisation; K562 lysate, 10 uM; active = over 0.2 and 3.5 SD of the protein, either way, in both replicates (recomputed)
# In short: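 Thermal stability, expressed as log-two fold change relative to solvent controls, is given from duplicates. Crude K562 extract in PBS pH 7.4 with 1 mM MgCl2, at 1 mg/mL protein, was treated with 10 μM compound for 30 min and heated in aliquots for 3 min across 48°C-58°C. After pooling, adjustment to 0.5% NP-40 at 4°C and centrifugation at 21,000xg for 90 min, supernatant protein was measured by TMTpro 16plex LC-MS/MS with channel sums equalised.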
row,Target,log2 fold change
1,TRRAP (UniProt Q9Y4A5),inactive: 0.003
2,TSEN54 (UniProt Q7Z6J9),inactive: -0.037
3,TRAPPC2 isoform 3 (UniProt P0DI81),inactive: 0.06
4,TSC2 isoform 4 (UniProt P49815),inactive: 0.005
5,TRAPPC6A isoform 2 (UniProt O75865),inactive: -0.042
6,TRMT11 (UniProt Q7Z4G4),inactive: 0.02
7,TTC4 (UniProt O95801),inactive: 0.005
8,TRAM1 (UniProt Q15629),inactive: 0.023
9,TRIP10 isoform 2 (UniProt Q15642),inactive: 0
10,TRMT61A (UniProt Q96FX7),inactive: -0.045
11,TRAPPC2L (UniProt Q9UL33),inactive: 0.02
12,TTC12 isoform 2 (UniProt Q9H892),inactive: -0.055
13,TSPO (UniProt P30536),inactive: 0.047
14,TTC5 (UniProt Q8N0Z6),inactive: 0.007
15,TRIM32 (UniProt Q13049),inactive: 0.018
16,TRAPPC11 (UniProt Q7Z392),inactive: -0.014
17,TSC1 (UniProt Q92574),inactive: -0.011

row,Target,log2 fold change
1,TRIM33 isoform 2 (UniProt Q9UPN9),inactive: 0.043
2,TRNT1 (UniProt Q96Q11),inactive: 0.018
3,TRMT61B (UniProt Q9BVS5),inactive: 0.009
4,TRIM5 (UniProt Q9C035),inactive: 0.023
5,TSPAN13 (UniProt O95857),inactive: -0.154
6,TRIM25 (UniProt Q14258),inactive: -0.05
7,TRPC4AP (UniProt Q8TEL6),inactive: 0.017
8,TSC22D2 (UniProt O75157),inactive: 0.017
9,TRIM11 (UniProt Q96F44),inactive: -0.009
10,TSNAX (UniProt Q99598),inactive: 0.002
11,TRAPPC13 isoform 4 (UniProt A5PLN9),inactive: -0.067
12,TRIP13 (UniProt Q15645),inactive: 0.05
13,TSR2 (UniProt Q969E8),inactive: 0.001
14,TRMT5 (UniProt Q32P41),inactive: 0.095
15,TTC9C (UniProt Q8N5M4),inactive: -0.004
16,TRAF6 (UniProt Q9Y4K3),inactive: -0.018

# An excerpt of these results, tab-delimited:
row	Target	log2 fold change
10	TSNAX (UniProt Q99598)	inactive: 0.002
11	TRAPPC13 isoform 4 (UniProt A5PLN9)	inactive: -0.067
